Source: paper PMC4894404
These are yes or no findings as the source states them, for the method shown. In cells and extracts the contact can be indirect. Binding calls can cover weak binding; strength is not graded here.

Sequences of proteins named here, by UniProt entry; tags and fusion partners are left off. A change or cut given only in a name is not applied to a line headed by its entry.
UniProt A0AUJ0: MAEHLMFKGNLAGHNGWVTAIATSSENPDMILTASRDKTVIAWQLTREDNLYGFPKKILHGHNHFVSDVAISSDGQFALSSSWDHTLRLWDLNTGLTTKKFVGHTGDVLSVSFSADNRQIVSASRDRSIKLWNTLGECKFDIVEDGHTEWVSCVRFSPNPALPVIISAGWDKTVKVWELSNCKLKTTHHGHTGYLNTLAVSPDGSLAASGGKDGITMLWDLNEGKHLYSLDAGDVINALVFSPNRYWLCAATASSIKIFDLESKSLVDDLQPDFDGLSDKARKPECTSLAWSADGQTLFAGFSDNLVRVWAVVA
UniProt P0CQ70: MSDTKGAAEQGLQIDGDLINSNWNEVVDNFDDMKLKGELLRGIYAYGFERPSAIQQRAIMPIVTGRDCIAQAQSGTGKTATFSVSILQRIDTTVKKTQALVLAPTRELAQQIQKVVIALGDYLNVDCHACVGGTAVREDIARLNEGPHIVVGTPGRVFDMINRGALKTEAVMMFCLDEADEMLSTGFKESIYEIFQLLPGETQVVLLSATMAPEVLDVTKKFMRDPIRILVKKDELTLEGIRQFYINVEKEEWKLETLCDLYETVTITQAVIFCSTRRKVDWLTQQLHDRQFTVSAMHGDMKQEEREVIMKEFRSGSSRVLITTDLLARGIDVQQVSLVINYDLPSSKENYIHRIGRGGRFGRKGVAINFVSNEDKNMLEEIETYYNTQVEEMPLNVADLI

Biological target: GST-Gib2 (C. neoformans) (UniProt A0AUJ0)
Assay: pull-down; called co-immunoprecipitation by the paper; GST-Gib2 on glutathione-sepharose resin, His-eIF4A added, overnight 4°C in Tris-NaCl buffer (50 mM Tris-HCl pH 7.4, 100 mM NaCl, 1% Triton X-100, 1 mM PMSF); Western blot with anti-His and anti-GST; both purified

binding: binds
Substance: His-eIF4A (from UniProt P0CQ70 1-401)
